In patent publication US7354905B2, “Prodrugs of thrombin inhibitors” (AstraZeneca AB, priority 1995, dated 2008):
Some results were stated once for a whole list of compounds, not compound by compound.

Target: T1, Human thrombin (Homo sapiens, UniProt P00734)
T1 construct: the conversion of the proenzyme prothrombin to the active enzyme thrombin; purchased Sigma Chem Co T 6769
Assay: Test A: Determination of thrombin clotting time (TT)
Assay type: biochemical
Conditions: concentration of inhibitor that doubles the thrombin clotting time for human plasma

Work on `CC(=O)OC(C)OC(=O)N=C(N)c1ccc(CNC(=O)C2CCN2C(=O)C(NCC(=O)OCc2ccccc2)C2CCCCC2)cc1` [Example 53, BnOOCCH2—(R)Cgl-Aze-Pab-COOCH(Me)OAc] yielded an IC50 greater than 1 µM.
`CCOC(=O)CNC(C(=O)N1CCC1C(=O)NCc1ccc(C(N)=NC(=O)OCOC(C)=O)cc1)C1CCCCC1` [Example 54, EtOOCCH2—(R)Cgl-Aze-Pab-COOCH2OAc] was tested, and the IC50 was greater than 1 µM.
`CC(=O)OCOC(=O)N=C(N)c1ccc(CNC(=O)C2CCN2C(=O)C(NCC(=O)OC(C)(C)C)C2CCCCC2)cc1` [Example 55, tBuOOCCH2—(R)Cgl-Aze-Pab-COOCH2OAc] gave an IC50 greater than 1 µM.
In the case of `CC(C)(C)C(=O)OCOC(=O)N=C(N)c1ccc(CNC(=O)C2CCN2C(=O)C(NCC(=O)OCc2ccccc2)C2CCCCC2)cc1` [Example 56, BnOOCCH2—(R)Cgl-Aze-Pab-COOCH2OOC-tBu], the IC50 is reported as greater than 1 µM.
With `CCC=C(COC(=O)CNC(C(=O)N1CCC1C(=O)NCc1ccc(C(N)=NC(=O)OCc2ccccc2)cc1)C1CCCCC1)C(=O)OC` [Example 58, MeOOC—C(═CEt)CH2OOC2OOCH2—(R)Cgl-Aze-Pab-Z] the IC50 was greater than 1 µM.
`CCCOC(=O)N=C(N)c1ccc(CNC(=O)C2CCN2C(=O)C(NCC(=O)OC(C)(C)C)C2CCCCC2)cc1` [Example 60, tBuOOCCH2—(R)Cgl-Aze-Pab-COOnPr] showed an IC50 greater than 1 µM.
With `NC(=NC(=O)OCc1ccc([N+](=O)[O-])cc1)c1ccc(CNC(=O)C2CCN2C(=O)C(NCC(=O)OCc2ccccc2)C2CCCCC2)cc1` [Example 62, BnOOCCH2—(R)Cgl-Aze-Pab-COO-Bn(4-NO2)] the IC50 was greater than 1 µM.
`NC(=NC(=O)OCc1ccccc1)c1ccc(CNC(=O)C2CCN2C(=O)C(NCC(=O)OCC(=O)N2CCCC2)C2CCCCC2)cc1` [Example 64, PrlC(O)CH2OOCCH2—(R)Cgl-Aze-PabZ] gave an IC50 greater than 1 µM.
For `Cc1ccccc1COC(=O)CNC(C(=O)N1CCC1C(=O)NCc1ccc(C(N)=NC(=O)OCc2ccc([N+](=O)[O-])cc2)cc1)C1CCCCC1` [Example 65, (2-Me)BnOOCCH2—(R)Cgl-Aze-Pab-COO-Bn(4-NO2)], the IC50 was greater than 1 µM.
`CCOC(=O)N=C(N)c1ccc(CNC(=O)C2CCN2C(=O)C(NCC(=O)OC)C2CCCCC2)cc1` [Example 66, MeOOCCH2—(R)Cgl-Aze-Pab-COOEt] was tested, and the IC50 was greater than 1 µM.
Work on `CCCN(CCC)C(=O)COC(=O)CNC(C(=O)N1CCC1C(=O)NCc1ccc(C(N)=NC(=O)OCc2ccc([N+](=O)[O-])cc2)cc1)C1CCCCC1` [Example 67, (nPr)2NC(O)CH2OOCCH2—(R)Cgl-Aze-Pab-COO-Bn(4-NO2)] yielded an IC50 greater than 1 µM.
`Cc1ccccc1COC(=O)CNC(C(=O)N1CCC1C(=O)NCc1ccc(C(N)=NC(=O)OCOC(=O)C(C)(C)C)cc1)C1CCCCC1` [Example 68, (2-Me)BnOOCCH2—(R)Cgl-Aze-Pab-COOCH2OOCtBu] showed an IC50 greater than 1 µM.
